# Numbering of substitutions follows the chain as printed. Numbers in names are those of the source. Results are given in words; binding and its absence hold for the method and conditions named. Some entries that bind do so weakly or less than the wild type.
# B1: FIC-1_(134-508) (domain or fragment, C. elegans, UniProt Q23544 134-508, looked up)
# chain: DEKRENDPAKVKEAILAAKAAGRSRKDGNLERAMTIMEHAMALAPTNPQILIEMGQIREMHNELVEADQCYVKALAYDPGNSEALVLRARTTPLVSAIDRKMLRSVHDLRDEFNHLQHSTALRRMMRETYFLYVYHTVAIEGNTLSLGQTRAILESGMVIPGKSIREHNEVIGMDAALRFLNCSLLSKEHDEISIDDILEMHRRVLGNADPVEAGRIRTTQVYVGRFTPVSPEYVMEQLKDIVDWLNDESTLTIDPIERAAIAHYKLVLVHPFTDGNGRTARLLLNLIMMRSGFPPVILPVETRAEYYASLHVANLGDLRPFVRYVAKHSEASIQRYIGAMKTSSDNILNSGDSKLTPEESEVSEKIEAECRAGN
# notes: C. elegans Fic protein FIC-1, residues 134-508; transmembrane helix and membrane proximal domain excluded; also called FIC-1 wild type; FIC-1 wildtype (wt); source: E. coli LOBSTR-RIL(DE3), purified (Ni-Sepharose, size-exclusion chromatography); not shown: His6, N-terminal, kept
# B2: FIC-1_(134-508) E274G/I298D (domain or fragment, C. elegans, UniProt Q23544 134-508, looked up)
# chain: B1 chain with E141G, I165D
# Legend:
# [1] = target: FIC-1_(134-508) (C. elegans) (UniProt Q23544); assay: SEC; size exclusion chromatogram of purified protein, elution volumes of standards marked; column and buffer of this run not stated; both purified
# [2] = target: FIC-1_(134-508) E274G/I298D (C. elegans) (UniProt Q23544); assay: as above
binder,measurement,setting,value
B1,binding,[1],binds
B2,binding,[2],no binding
